Common to all, as to experiment: fluorescence polarisation; fluorescence anisotropy; 2x serial dilution of purified protein mixed with 50 nM N-terminally FITC-conjugated peptide, room temperature, 15 min, 384-well plate; one-site binding model, n = 3; both purified
For orientation: Polarisation of emitted light reports the rotation of a fluorescent probe.

One experiment deals with T1, MAST1 p-Scramble.
T1 sequence (peptide, FITC on the N-terminus; phosphoserine at residue 6 of the peptide): PLGDPSGRWARLS

Experiment [1] has as its target T2, MAST1^158-170 p-S163 (Mus musculus).
T2 sequence (peptide, FITC on the N-terminus; phosphoserine at S163): RSRSLSPGRSPSS

Experiment [2] addresses T3, MAST1^156-168 p-S161 (Mus musculus).
T3 sequence (peptide, FITC on the N-terminus; phosphoserine at S161): RPRSRSLSPGRSP

Experiment [3] deals with T4, MAST1^85-97 p-S90 (Mus musculus).
T4 sequence (peptide, FITC on the N-terminus; phosphoserine at S90): DGRRWSLASLPSS

In a further experiment the target is T5, Tau^209-221 p-S214.
T5 sequence (peptide, FITC on the N-terminus; phosphoserine at S214): RSRTPSLPTPPTR

The record followed here is PMC13598245.

These are yes or no findings as the source states them, for the method shown. Some binding calls cover weakened binding; strength is not graded here.

B1: 14-3-3η (purified, recombinant) (protein, UniProt Q04917 1-246)
chain: MGDREQLLQRARLAEQAERYDDMASAMKAVTELNEPLSNEDRNLLSVAYKNVVGARRSSWRVISSIEQKTMADGNEKKLEKVKAYREKIEKELETVCNDVLSLLDKFLIKNCNDFQYESKVFYLKMKGDYYRYLAEVASGEKKNSVVEASEAAYKEAFEISKEQMQPTHPIRLGLALNFSVFYYEIQNAPEQACLLAKQAFDDAIAELDTLNEDSYKDSTLIMQLLRDNLTLWTSDQQDEEAGEGN
Consider B1, for which the binding entry (with MAST1 p-Scramble; in experiment [1]) was “no binding” in each case.

B2: 14-3-3θ (purified, recombinant) (protein, UniProt P27348 1-245)
chain: MEKTELIQKAKLAEQAERYDDMATCMKAVTEQGAELSNEERNLLSVAYKNVVGGRRSAWRVISSIEQKTDTSDKKLQLIKDYREKVESELRSICTTVLELLDKYLIANATNPESKVFYLKMKGDYFRYLAEVACGDDRKQTIDNSQGAYQEAFDISKKEMQPTHPIRLGLALNFSVFYYEILNNPELACTLAKTAFDEAIAELDTLNEDSYKDSTLIMQLLRDNLTLWTSDSAGEECDAAEGAEN
As to B2, the binding entry (in experiment [2]; in experiment [3]; in the experiment with Tau^209-221 p-S214) was “binds” throughout.
